Data reported in US9475824B2, “Fused pyrimidines as inhibitors of p97 complex” (Cleave Biosciences, Inc., priority 2012, dated 2016).

Key:
[1] = in vitro; details: human, Caco-2, pH 7.4
[2] = system: Caco-2 cell monolayer

Papp A→B at 90 min, 100 μM [1]: 1.08 ×10⁻⁶ cm/s
Papp B→A at 90 min, 100 μM [1]: 2.29 ×10⁻⁶ cm/s
Peff A B, Range ([2]; pH 7.4 Caco-2, A to B): 0.69-1.80 ×E−6 cm/sec
Peff B A, Range ([2]; pH 7.4 Caco-2, B to A): 1.69-2.68 ×E−6 cm/sec
SMILES: CC(C)NCC(O)COc1ccc(CC(N)=O)cc1 (stereo not shown) [Atenolol]
